Earlier results as cited in patent US20130217132A1, “METHODS, COMPOSITIONS AND USE FOR ENHANCING CHEMICAL TOLERANCE BY MICROORGANISMS” (priority 2009, published 2013).

Tested on: E. coli
Settings: E. coli inhibition, acetate compared to benzoate; cited from earlier work

Row | Compound | pHi at which the same growth rate was observed
1 | CC(=O)O [acetate, acetic acid] | 7.48
2 | O=C(O)c1ccccc1 [benzoate] | 7.26
